Measurements reported in patent US4791118A, “Quinolonecarboxylic acid derivatives and their preparation” (Kyorin Pharmaceutical Co., Ltd., priority 1985, dated 1988).
≈ marks a conversion by molar mass, not a printed value.

Columns and labels:
[1] = test system: B. thetaiotaomicron (0661); experiment: MIC, anaerobic bacteria; format: cell-based; conditions: Bacteroides thetaiotaomicron, Gram -, 10^6 cells/ml
From the text: (§1) | Organism (10^6 cells/ml)

Shigella sonnei IID 969 = experiment: microbe, parasite or virus in culture; conditions: IID969
[2] = test system: Propionibacterium acens 11828; experiment: MIC, anaerobic bacteria; format: cell-based
F. varium KYA 8501 = experiment: microbe, parasite or virus in culture; conditions: Fusobacterium varium, KYA8501
E. coli ML 4707 = experiment: MIC, aerobic bacteria; format: cell-based; conditions: Escherichia coli, ML4707, Gram -, 10^6 cells/ml
From the text: as §1

Q: With `O=C(O)c1cn(C2CC2)c2cc(N3CCNCC3)c(F)cc2c1=O` [CPFX, ciprofloxacin, reference compound] as the compound, how does the MIC [1] read?
A: 12.5 µg/mL (≈ 37.7 µM)

Q: And the MIC (Shigella sonnei IID 969)?
A: 0.0125 µg/mL (≈ 0.0377 µM)

Q: And the MIC [2]?
A: 12.5 µg/mL (≈ 37.7 µM)

Q: And the MIC (F. varium KYA 8501)?
A: 12.5 µg/mL (≈ 37.7 µM)

Q: And the MIC (E. coli ML 4707)?
A: 0.0125 µg/mL (≈ 0.0377 µM)
